Values from PubChem BioAssay AID686938 (Drosophila RNAi Screening Center, 2013)
Screen: 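Knock-downs reducing store-operated calcium influx in Drosophila cells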 (primary screen). Cell system: Drosophila S2R+ cells. Reagent: long dsRNA against Drosophila genes, about 0.25 µg dsRNA per well, roughly 10,000 cells. Time to read-out: 5 days of knock-down before the calcium assay. Challenge: thapsigargin (SERCA pump blocker) to empty calcium stores; entry signal taken 4 min after adding it. Measurement: 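Duplicate raw fluo-4 intensities per well from a plate reader, at rest and four minutes after thapsigargin emptied calcium stores; entry-to-rest ratio filled for only some wells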. Reading the numbers: calcium entry signal: higher = stronger calcium signal after store depletion; resting calcium signal: higher = higher resting calcium signal. Active means: 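Called when the plate z-score of the entry-to-rest ratio, mean of duplicates, falls below −3; wells with low overall dye signal (Fmax z below −2) or more than five off-targets excluded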. Meaning of the calls: active = strongly reduced calcium entry; inactive = no strong reduction.
In all, the deposit lists about 23,000 reagents; below is an unselected part of those with a known target gene and a result. Of all reagents, 75 (0.33%) are marked active. 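Raw plate signals without normalisation; calls rest on plate z-scores that were not deposited; ratio present for only 364 wells.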 A plus sign joins genes that one reagent is predicted to hit. No sequences are given here. The record does not give: the dose of the treatment.

predicted target	PubChem SID	calcium entry signal, replicate 1 (fluorescence units)	calcium entry signal, replicate 2 (fluorescence units)	resting calcium signal, replicate 1 (fluorescence units)	resting calcium signal, replicate 2 (fluorescence units)	Outcome
Rpp14b (GeneID 43578)	SID104194855	2.78e7	6.92e7	1.57e7	2.52e7	inactive
atk (GeneID 40266)	SID104191210	3.60e7	4.13e7	1.85e7	1.82e7	inactive
atk (GeneID 40266)	SID104191561	2.95e7	5.13e7	1.49e7	2.09e7	inactive
CG32694 (GeneID 31933)	SID104197636	3.17e7	3.94e7	1.66e7	1.81e7	inactive
CG32694 (GeneID 31933)	SID104197647	4.44e7	5.36e7	2.09e7	2.32e7	inactive
CG32694 (GeneID 31933)	SID104202066	3.42e7	2.71e7	1.70e7	1.10e7	inactive
CG14518 (GeneID 43421)	SID104194662	3.40e7	5.65e7	1.81e7	2.45e7	inactive
Calr (GeneID 41166)	SID104196406	3.35e7	3.07e7	1.83e7	1.74e7	inactive
cnir (GeneID 33520)	SID104180291	3.42e7	2.28e7	1.73e7	1.06e7	inactive
Ir94b (GeneID 318728)	SID104201183	3.89e7	3.12e7	2.06e7	1.45e7	inactive
SkpE (GeneID 32997)	SID104199223	5.23e7	3.46e7	2.20e7	1.48e7	inactive
CG34150 (GeneID 4379863)	SID104193481	4.35e7	3.15e7	2.04e7	1.78e7	inactive
drn + CG43675	SID104194939	2.14e7	1.80e7	1.17e7	1.03e7	inactive
CG6938 (GeneID 39362)	SID104190544	3.83e7	4.73e7	1.85e7	2.04e7	inactive
GluRIID (GeneID 44483)	SID104196515	3.71e7	3.52e7	4.55e7	1.54e7	inactive
Samtor (GeneID 37934)	SID104184182	4.33e7		2.25e7		inactive
Hsp70Bb + Hsp70Bbb	SID104195677	4.37e7	2.20e7	2.18e7	1.18e7	inactive
CG15522 (GeneID 43546)	SID104194851	3.65e7	5.52e7	1.83e7	2.20e7	inactive
pr (GeneID 35292)	SID104183388	5.58e7		2.64e7		inactive
uif (GeneID 33983)	SID104180755	3.49e7	3.44e7	2.09e7	1.64e7	inactive
uif (GeneID 33983)	SID104183219	3.55e7	4.27e7	1.68e7	2.04e7	inactive
CG3568 (GeneID 31383)	SID104198104	3.56e7	3.97e7	1.84e7	1.79e7	inactive
ZnT41F (GeneID 35513)	SID104184642	3.80e7		1.84e7		inactive
Nubp2 (GeneID 40282)	SID104191550	2.60e7	4.66e7	1.22e7	1.74e7	inactive
Acsx1L (GeneID 42351)	SID104195806	4.65e7	4.34e7	6.11e7	2.08e7	inactive
CG9451 (GeneID 40118)	SID104190866	2.99e7	4.39e7	1.40e7	1.80e7	inactive
Zwilch (GeneID 59247)	SID104195168	3.31e7	5.36e7	1.78e7	2.31e7	inactive
emb (GeneID 34167)	SID104183320	3.06e7		2.18e7		inactive
CG3309 (GeneID 31450)	SID104198093	1.97e7	3.09e7	1.04e7	1.46e7	inactive
nopo (GeneID 37083)	SID104186710	3.84e7	3.58e7	1.83e7	1.85e7	inactive
cathD (GeneID 45268)	SID104187380	2.52e7	2.86e7	1.18e7	1.21e7	inactive
Ctl1 (GeneID 38523)	SID104188095	3.15e7	3.08e7	1.67e7	1.57e7	inactive
D19A (GeneID 38718)	SID104190925	2.96e7	2.39e7	2.23e7	1.26e7	inactive
CG14109 (GeneID 39512)	SID104189904	3.02e7	3.79e7	1.59e7	1.84e7	inactive
CG14615 (GeneID 33129)	SID104200419	5.20e7	4.62e7	2.50e7	1.92e7	inactive
zip (GeneID 38001)	SID104184517	2.62e7	5.56e7	1.69e7	3.34e7	active
zip (GeneID 38001)	SID104201943	3.37e7	6.07e7	2.06e7	4.07e7	active
CG13159 (GeneID 36344)	SID104186075	3.39e7	3.30e7	1.75e7	1.70e7	inactive
RapGAP1 (GeneID 34032)	SID104182085	3.44e7	4.86e7	1.67e7	2.10e7	inactive
RapGAP1 (GeneID 34032)	SID104182086	3.59e7	3.95e7	1.71e7	1.69e7	inactive
RapGAP1 (GeneID 34032)	SID104182087	3.36e7	3.42e7	1.81e7	1.69e7	inactive
RapGAP1 (GeneID 34032)	SID104183198	4.48e7		2.44e7		inactive
CG10737 (GeneID 37202)	SID104185791	3.26e7	2.98e7	1.50e7	1.37e7	inactive
Rac1 (GeneID 38146)	SID104188480	2.91e7	3.23e7	1.59e7	1.55e7	inactive
RpS25 (GeneID 41343)	SID104196629	1.58e7	2.20e7	1.08e7	1.42e7	inactive
CG34167 (GeneID 5740831)	SID104181317	3.34e7	4.49e7	1.84e7	2.13e7	inactive
cic (GeneID 53560)	SID104194068	2.39e7	2.74e7	1.46e7	1.68e7	inactive
cic (GeneID 53560)	SID104195500	4.72e7	3.82e7	6.06e7	1.75e7	inactive
cic (GeneID 53560)	SID104196710	3.44e7	3.69e7	4.70e7	1.53e7	inactive
cic (GeneID 53560)	SID104201035	5.38e7	5.13e7	2.81e7	2.45e7	inactive
cic (GeneID 53560)	SID104202574	3.50e7	4.23e7	1.70e7	2.02e7	inactive
p120ctn (GeneID 3355143)	SID104187545	3.35e7	3.83e7	1.70e7	1.67e7	inactive
blanks (GeneID 38620)	SID104189549	2.92e7	4.04e7	1.35e7	1.75e7	inactive
Dyrk3 (GeneID 3885567)	SID104200847	5.45e7	3.93e7	2.30e7	1.67e7	inactive
CG9445 (GeneID 50147)	SID104184798	2.19e7	3.02e7	1.06e7	1.30e7	inactive
Capr (GeneID 59172)	SID104190138	3.50e7	6.16e7	1.90e7	2.35e7	inactive
CG18542 + CG32939	SID104195134	3.31e7	4.55e7	1.47e7	2.07e7	inactive
CG33966 (GeneID 3885642)	SID104188048	3.01e7	3.40e7	1.51e7	1.58e7	inactive
